PubChem BioAssay AID743121 | NCATS – 2013

- Aim: 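Genes whose silencing strengthens cell killing by camptothecin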 (primary screen)
- Cell system: MDA-MB-231 cells, a human breast cancer line
- Reagents: single siRNA against human genes, 20 nM siRNA (0.8 pmol per well)
- Timing: 120 h (drug added 48 h after transfection, read 72 h later)
- Conditions: camptothecin 20 nM (about EC30) for 72 h; vehicle 0.1% DMSO in parallel plates
- Measurement: 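CellTiter-Glo ATP signal, scaled to control siRNA as percent viability; sensitisation given as log2 of untreated divided by camptothecin-treated viability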
- Reading the numbers: log2 vehicle/camptothecin viability: higher = stronger sensitisation to camptothecin; viability with camptothecin: higher = more viable cells
- Units: viability with camptothecin in % of control
- Rule for the call: 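Active genes have an RSA gene-level p-value below 0.001, computed from the ratios of their separate siRNAs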
The whole screen tested about 26,000 reagents; below is an unselected part. 167 of all reagents (0.63%) count as active. 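Calls are per gene from RSA p-values that are not deposited; an individual active-marked siRNA can sensitise only weakly.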 Reagents against one gene are numbered here. Not all columns of the deposit are shown.

How did the screen score PGM5 (phosphoglucomutase 5) #1?
log2 vehicle/camptothecin viability: -0.55; viability with camptothecin: 98.8; Call: inactive

What did the screen give for PGM5 (phosphoglucomutase 5) #2?
log2 vehicle/camptothecin viability: -0.144; viability with camptothecin: 105; Call: inactive

With PGM5 (phosphoglucomutase 5) #3, how do the results read?
log2 vehicle/camptothecin viability: -0.21; viability with camptothecin: 89.5; Call: inactive

What did the screen give for PGM5 (phosphoglucomutase 5) #4?
log2 vehicle/camptothecin viability: 0.234; viability with camptothecin: 57.8; Call: inactive

For CHPF (chondroitin polymerizing factor) #1, what does the deposit list?
log2 vehicle/camptothecin viability: 0.136; viability with camptothecin: 80.7; Call: inactive

Which result is listed for CHPF (chondroitin polymerizing factor) #2?
log2 vehicle/camptothecin viability: -0.79; viability with camptothecin: 62.9; Call: inactive

For CHPF (chondroitin polymerizing factor) #3, what was measured?
log2 vehicle/camptothecin viability: 0.085; viability with camptothecin: 62; Call: inactive

Which result is listed for CHPF (chondroitin polymerizing factor) #4?
log2 vehicle/camptothecin viability: -0.38; viability with camptothecin: 74.2; Call: inactive

With NR1D2 (nuclear receptor subfamily 1 group D member 2) #1, how do the results read?
log2 vehicle/camptothecin viability: -0.112; viability with camptothecin: 68; Call: inactive

With NR1D2 (nuclear receptor subfamily 1 group D member 2) #2, what was measured?
log2 vehicle/camptothecin viability: -0.23; viability with camptothecin: 117; Call: inactive

What is on record for NR1D2 (nuclear receptor subfamily 1 group D member 2) #3?
log2 vehicle/camptothecin viability: 0.198; viability with camptothecin: 71; Call: inactive

Which result is listed for NR1D2 (nuclear receptor subfamily 1 group D member 2) #4?
log2 vehicle/camptothecin viability: -0.191; viability with camptothecin: 51.6; Call: inactive

What is on record for FBXO31 (F-box protein 31) #1?
log2 vehicle/camptothecin viability: 0.273; viability with camptothecin: 92.6; Call: inactive

How did the screen score FBXO31 (F-box protein 31) #2?
log2 vehicle/camptothecin viability: -0.381; viability with camptothecin: 122; Call: inactive

How did the screen score FBXO31 (F-box protein 31) #3?
log2 vehicle/camptothecin viability: -0.111; viability with camptothecin: 102; Call: inactive

Which result is listed for FBXO31 (F-box protein 31) #4?
log2 vehicle/camptothecin viability: 0.456; viability with camptothecin: 42.7; Call: inactive

For TLR3 (toll like receptor 3) #1, what was measured?
log2 vehicle/camptothecin viability: -0.589; viability with camptothecin: 55.7; Call: inactive

With TLR3 (toll like receptor 3) #2, what was measured?
log2 vehicle/camptothecin viability: 0.549; viability with camptothecin: 79.2; Call: inactive

With TLR3 (toll like receptor 3) #3, what does the deposit list?
log2 vehicle/camptothecin viability: 0.241; viability with camptothecin: 80.5; Call: inactive

Which result is listed for TLR3 (toll like receptor 3) #4?
log2 vehicle/camptothecin viability: 0.928; viability with camptothecin: 38.8; Call: inactive

For GAS2 (growth arrest specific 2) #1, what does the deposit list?
log2 vehicle/camptothecin viability: -0.12; viability with camptothecin: 103; Call: inactive

Which result is listed for GAS2 (growth arrest specific 2) #2?
log2 vehicle/camptothecin viability: -0.153; viability with camptothecin: 69.1; Call: inactive

With GAS2 (growth arrest specific 2) #3, how do the results read?
log2 vehicle/camptothecin viability: -0.279; viability with camptothecin: 95.6; Call: inactive

What is on record for GAS2 (growth arrest specific 2) #4?
log2 vehicle/camptothecin viability: -0.0236; viability with camptothecin: 83.4; Call: inactive

What is on record for OMA1 (OMA1 zinc metallopeptidase) #1?
log2 vehicle/camptothecin viability: -0.0304; viability with camptothecin: 84.6; Call: inactive

With OMA1 (OMA1 zinc metallopeptidase) #2, what was measured?
log2 vehicle/camptothecin viability: -0.246; viability with camptothecin: 93.8; Call: inactive

With OMA1 (OMA1 zinc metallopeptidase) #3, what was measured?
log2 vehicle/camptothecin viability: -0.0901; viability with camptothecin: 73.8; Call: inactive

Which result is listed for OMA1 (OMA1 zinc metallopeptidase) #4?
log2 vehicle/camptothecin viability: -0.232; viability with camptothecin: 91.9; Call: inactive

With IDE (insulin degrading enzyme) #1, what was measured?
log2 vehicle/camptothecin viability: -0.0967; viability with camptothecin: 92.6; Call: inactive

For IDE (insulin degrading enzyme) #2, how do the results read?
log2 vehicle/camptothecin viability: -0.0986; viability with camptothecin: 114; Call: inactive

With IDE (insulin degrading enzyme) #3, what does the deposit list?
log2 vehicle/camptothecin viability: -0.0999; viability with camptothecin: 85.9; Call: inactive

What is on record for IDE (insulin degrading enzyme) #4?
log2 vehicle/camptothecin viability: 0.95; viability with camptothecin: 20.8; Call: inactive

With CAPN9 (calpain 9) #1, what does the deposit list?
log2 vehicle/camptothecin viability: -0.0366; viability with camptothecin: 91.6; Call: inactive

For CAPN9 (calpain 9) #2, what was measured?
log2 vehicle/camptothecin viability: -0.27; viability with camptothecin: 86.9; Call: inactive

With CAPN9 (calpain 9) #3, what does the deposit list?
log2 vehicle/camptothecin viability: -0.441; viability with camptothecin: 54.5; Call: inactive

For CAPN9 (calpain 9) #4, what was measured?
log2 vehicle/camptothecin viability: 0.837; viability with camptothecin: 26.3; Call: inactive

Which result is listed for OPN3 (opsin 3) #1?
log2 vehicle/camptothecin viability: -0.0634; viability with camptothecin: 99.6; Call: inactive

What is on record for OPN3 (opsin 3) #2?
log2 vehicle/camptothecin viability: -0.249; viability with camptothecin: 87.5; Call: inactive

With OPN3 (opsin 3) #3, how do the results read?
log2 vehicle/camptothecin viability: -0.344; viability with camptothecin: 81.6; Call: inactive

How did the screen score OPN3 (opsin 3) #4?
log2 vehicle/camptothecin viability: -0.293; viability with camptothecin: 116; Call: inactive

With PGAM2 (phosphoglycerate mutase 2) #1, what does the deposit list?
log2 vehicle/camptothecin viability: -0.127; viability with camptothecin: 60.6; Call: inactive

With PGAM2 (phosphoglycerate mutase 2) #2, how do the results read?
log2 vehicle/camptothecin viability: 0.578; viability with camptothecin: 20.1; Call: inactive

For PGAM2 (phosphoglycerate mutase 2) #3, what does the deposit list?
log2 vehicle/camptothecin viability: -0.0755; viability with camptothecin: 51.5; Call: inactive

With PGAM2 (phosphoglycerate mutase 2) #4, how do the results read?
log2 vehicle/camptothecin viability: 0.835; viability with camptothecin: 41.2; Call: inactive

What did the screen give for PGRMC2 (progesterone receptor membrane component 2) #1?
log2 vehicle/camptothecin viability: -0.272; viability with camptothecin: 88.1; Call: inactive

With PGRMC2 (progesterone receptor membrane component 2) #2, what does the deposit list?
log2 vehicle/camptothecin viability: -0.0958; viability with camptothecin: 96.2; Call: inactive

With PGRMC2 (progesterone receptor membrane component 2) #3, what was measured?
log2 vehicle/camptothecin viability: -0.0942; viability with camptothecin: 108; Call: inactive

What did the screen give for PGRMC2 (progesterone receptor membrane component 2) #4?
log2 vehicle/camptothecin viability: 0.263; viability with camptothecin: 65.8; Call: inactive

Copied from the entries so far, 4 entries:
NR1D2 (nuclear receptor subfamily 1 group D member 2) #1 → log2 vehicle/camptothecin viability: -0.112; viability with camptothecin: 68; Call: inactive
NR1D2 (nuclear receptor subfamily 1 group D member 2) #2 → log2 vehicle/camptothecin viability: -0.23; viability with camptothecin: 117; Call: inactive
NR1D2 (nuclear receptor subfamily 1 group D member 2) #3 → log2 vehicle/camptothecin viability: 0.198; viability with camptothecin: 71; Call: inactive
NR1D2 (nuclear receptor subfamily 1 group D member 2) #4 → log2 vehicle/camptothecin viability: -0.191; viability with camptothecin: 51.6; Call: inactive
